Experimental data as given in PubChem BioAssay AID2551 (National Center for Advancing Translational Sciences (NCATS), 2010).
In all, about 310,000 compounds went through this assay and about 17,000 (5.5%) were called active. The shares of active, inactive and inconclusive entries below differ from those in the screen. Calls come from the whole dose curve; as a rule, active = well fitted inhibition curve with a large enough effect; inconclusive = small, poorly fitted or top-dose-only effect, or effect the other way; inactive = no such curve, though single readings can be large or run the other way. Potencies of inconclusive entries are doubtful fits and often do not repeat.

Amino acid sequences for entries named in this document (tags omitted). A change or cut given only in a name is not applied to a line headed by its entry.
UniProt P51450: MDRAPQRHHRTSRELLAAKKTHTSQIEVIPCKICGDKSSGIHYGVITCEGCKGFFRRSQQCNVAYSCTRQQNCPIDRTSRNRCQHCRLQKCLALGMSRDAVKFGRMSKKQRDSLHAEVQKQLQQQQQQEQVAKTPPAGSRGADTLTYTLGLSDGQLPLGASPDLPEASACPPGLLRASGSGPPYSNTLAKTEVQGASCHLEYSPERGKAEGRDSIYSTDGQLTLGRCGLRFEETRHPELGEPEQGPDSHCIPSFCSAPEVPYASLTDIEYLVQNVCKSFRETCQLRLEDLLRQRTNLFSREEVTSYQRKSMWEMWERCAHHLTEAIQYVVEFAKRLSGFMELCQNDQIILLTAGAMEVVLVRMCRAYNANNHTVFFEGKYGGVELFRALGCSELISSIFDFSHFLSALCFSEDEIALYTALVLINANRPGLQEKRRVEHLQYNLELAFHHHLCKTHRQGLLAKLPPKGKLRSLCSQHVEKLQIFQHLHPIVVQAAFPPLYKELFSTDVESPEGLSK

Target: Nuclear receptor ROR-gamma (Mus musculus) (UniProt P51450)
Test: qHTS for inhibitors of ROR gamma transcriptional activity; note: nearly all actives have a fitted effect of over 60% in size
Details: Drosophila S2 Gal4-RORgamma UAS-luciferase reporter, 20 h; activity change, negative = inhibition: at 53.6 µM (top of the series)
Procedure, shortened: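 Drosophila S2 cells stably expressing Gal4-DBD/mouse RORγ fusion under metallothionein promoter plus UAS-luciferase; compound 1 h, then 700 uM CuSO4 induction for 20 h at ambient temperature; inhibition read as reduced luminescence.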
% is set by controls: 0 for no effect and ±100 for the full control effect; potency is the fitted concentration of half-maximal effect.

SMILES | Potency | activity change, negative = inhibition
COc1ccc2cc(C(=O)C3CCCN(C(=O)c4snnc4C)C3)ccc2c1 (stereo not drawn) | inconclusive: 22.4 µM [activator, single point] | 
O=[N+]([O-])c1ccccc1C1Nc2cccc3cccc(c23)N1 | active: 1 µM | 
C/C(=N/Nc1nc(C)cc(C)n1)c1ccc(Br)cc1 | active: 7.94 µM | 
Cc1cccc(NC(=O)NNC(=O)c2cc(-c3ccccc3Cl)nc3ccccc23)c1 |  | inactive: 39.7%
Cc1ccc(-c2csc(=S)n2CC(=O)OCC(=O)NC(C)C(C)C)cc1 (stereo not drawn) |  | inactive: -9.94%
CC1(C)CC(=O)c2sc(NC(=O)CCS(=O)(=O)c3ccccc3)nc2C1 | inconclusive: 7.94 µM [inhibitor, partial curve, poor fit] | 
COCCNC(=S)N/N=C/c1ccc(N2CCOCC2)cc1 | inconclusive: 35.5 µM [inhibitor, single point] | 
CN(CCc1ccccc1)C(=O)c1cc(COc2ccc(F)cc2Cl)on1 | inconclusive: 7.94 µM [activator, partial curve] | 
CCOCCn1c(SCCCc2ccccc2)nc2c1c(=O)[nH]c(=O)n2C | inconclusive: 0.282 µM [activator, partial curve, poor fit] | 
COc1ccc2c(c1)O[C@@H](c1cccc(C(F)(F)F)c1)[C@H](OC(=O)N[C@H](C)C1CCCCC1)C2=O | inconclusive: 31.6 µM [inhibitor, single point] | 
NC(=O)c1ccc(-n2nnnc2SCc2ccccc2)cc1 |  | inactive: -8.81%
C=CCn1c(SCc2ccc(C(=O)O)cc2)nc2sc(C)c(C)c2c1=O | active: 3.98 µM | 
Cc1ccc(C(C)C)c(OCc2nn(CC(=O)c3ccc(Cl)cc3)c3[n+]2CCCCC3)c1 | inconclusive: 31.6 µM [inhibitor, single point] | 
O=C(CSc1c[nH]c2ccccc12)NCc1ccc2c(c1)OCO2 | inconclusive: 22.4 µM [activator, single point] | 
CC(C)NS(=O)(=O)c1ccc(Oc2ncc(C(F)(F)F)cc2Cl)cc1 | inconclusive: 5.62 µM [activator, partial curve] | 
O=S(=O)(c1ccccc1)N1CCC(N2CCCCCC2)CC1 | inconclusive: 15.8 µM [inhibitor, partial curve] | 
CCOC(=O)c1c(NC(=O)C2(C)Cc3ccccc3C(=O)O2)sc2c1CCCC2 (stereo not drawn) | inconclusive: 35.5 µM [activator, single point] | 
COC(=O)COc1cccc(NC(=O)COc2ccccc2)c1 | inconclusive: 15.8 µM [activator, single point] | 
C/C=C/C=C/C(=O)Nc1nccs1 | active: 10 µM | 
N#Cc1ccc(CN2CC[C@@]3(CCCN(C(=O)c4cc(C(F)(F)F)cc(C(F)(F)F)c4)C3)C2)cc1 |  | inactive: 1.72%
CC(C(=O)NC1CCCCC1)N(Cc1ccccc1)C(=O)c1snc(C(N)=O)c1N (stereo not drawn) |  | inactive: 17.1%
CCOC(=O)C1=C(CSc2n[nH]c(N)n2)NC(=O)NC1C (stereo not drawn) | inconclusive: 0.794 µM [inhibitor, full curve] | 
Cc1ccc(C(=O)Nc2ccc3c(c2)OCO3)cc1S(=O)(=O)N1CCOCC1 |  | inactive: 25.8%
C=CCOc1ccc(C2=NOC(C(=O)Nc3ccc4c(c3)OCCO4)C2)cc1 (stereo not drawn) |  | inactive: 34.5%
CCOC(=O)c1ccc(NC(=S)N(CCCN2CCCC(C)C2)Cc2cccs2)cc1 (stereo not drawn) | inconclusive: 10 µM [inhibitor, partial curve] | 

SMILES | Potency | activity change, negative = inhibition
O=C(Nc1ccc(Cl)cc1)Nc1nnc(CSc2ccc(Cl)cc2)s1 |  | inactive: 2.19%
Cc1nc2ccccn2c1C(=O)N/N=C/c1cc(C)n(-c2ccc(Cl)cc2)c1C | active: 20 µM | 
O=C(O)COc1ccccc1/C=N/NC(=O)Cc1ccccc1 |  | inactive: 13.6% [at 1.91 µM]
COc1cc(C(=O)O)ccc1OCc1c(C)noc1C | inconclusive: 11.2 µM [inhibitor, single point] | 
CN(Cc1ccccc1)c1ncnc2sccc12 | inconclusive: 31.6 µM [activator, single point] | 
Nc1c(C(=O)O)sc2nc(-c3ccccc3)cc(-c3ccccc3)c12 |  | inactive: -10.1%
CCOC(=O)c1c(-c2ccc(F)cc2)csc1NC(=O)CCN1C(=O)c2ccccc2C1=O | inconclusive: 6.31 µM [activator, partial curve] | 
COc1ccc(CC(=O)c2ccc(OC)c(OC)c2C)cc1OC | inconclusive: 17.8 µM [activator, partial curve] | 
O=C(CCCCl)NC(=S)Nc1ccc(N2CCOCC2)cc1 | active: 2.24 µM | 
COc1cc(/C=C(\C#N)c2nc3c(s2)CC(C)CC3)ccc1O (stereo not drawn) | active: 1.41 µM | 
C/C(Cn1cnc([N+](=O)[O-])n1)=N\NC(=O)c1ccc(Br)cc1 | inconclusive: 31.6 µM [inhibitor, single point] | 
Cc1nn2cc(-c3ccc(N)cc3)nc2s1 | inconclusive: 15.8 µM [inhibitor, single point] | 
C/C(=N\NC(=O)C1(C)CC1(Br)Br)c1ccc(C)cc1C (stereo not drawn) | inconclusive: 17.8 µM [activator, single point] | 
CC1=NN(C(N)=S)C(=O)C1N=Nc1cccc(C(=O)O)c1 (stereo not drawn) | active: 11.2 µM | 
CCc1ccc(NC(=O)C(=O)NCCN2CCN(C(=O)c3ccco3)CC2)cc1 | inconclusive: 3.98 µM [activator, full curve] | 
Cc1nc(CCNC(=O)c2cc(COc3ccc(F)cc3Cl)on2)sc1C | inconclusive: 22.4 µM [inhibitor, single point] | 
Cc1cccc(C(=O)Nc2ccc(O)cc2)c1 | inconclusive: 25.1 µM [activator, single point] | 
CSCCC(NC(=O)c1cc(C)oc1C)C(=O)O (stereo not drawn) | inconclusive: 25.1 µM [activator, single point] | 
O=C(CSc1n[nH]c(-c2ccccc2O)n1)N1CCCc2ccccc21 | active: 11.2 µM | 
COc1ccc(COc2cc(-c3cccc(OC)c3)nc3ccc(NC(=O)c4ccc(OC)cc4)cc23)cc1 | inconclusive: 3.98 µM [activator, full curve, poor fit] | 
CC1Cc2ccccc2N1C(=O)CCS(=O)(=O)c1cccs1 (stereo not drawn) | inconclusive: 12.6 µM [activator, partial curve] | 
COc1ccc2c(c1)c(=O)oc1cc(OCC(=O)NCC3CCC(C(=O)O)CC3)ccc12 (stereo not drawn) | inconclusive: 14.1 µM [inhibitor, partial curve] | 
COc1ccccc1N(CC(O)COc1ccc(C)cc1)S(=O)(=O)c1ccccc1 (stereo not drawn) | inconclusive: 31.6 µM [activator, partial curve] | 
COc1ccc(N2CCN(C(=O)c3csc4ccccc34)CC2)cc1 | inconclusive: 35.5 µM [activator, single point] | 
CCOC(=O)/C(C#N)=C\c1cc(C)n(-c2ccccc2)c1C | inconclusive: 15.8 µM [inhibitor, single point] | 

Quoted at random: five entries already listed
SMILES | Potency | activity change, negative = inhibition
CSCCC(NC(=O)c1cc(C)oc1C)C(=O)O (stereo not drawn) | inconclusive: 25.1 µM [activator, single point] | 
CC1Cc2ccccc2N1C(=O)CCS(=O)(=O)c1cccs1 (stereo not drawn) | inconclusive: 12.6 µM [activator, partial curve] | 
O=C(O)COc1ccccc1/C=N/NC(=O)Cc1ccccc1 |  | inactive: 13.6% [at 1.91 µM]
C/C(Cn1cnc([N+](=O)[O-])n1)=N\NC(=O)c1ccc(Br)cc1 | inconclusive: 31.6 µM [inhibitor, single point] | 
CN(Cc1ccccc1)c1ncnc2sccc12 | inconclusive: 31.6 µM [activator, single point] | 

(cont.)

SMILES | Potency | activity change, negative = inhibition
S=c1[nH]nc(-c2ccccc2)n1/N=C/C=C/c1ccco1 | active: 2.82 µM | 
CCCCNC(=S)NNC(=O)c1csc(C(C)C)c1 | active: 7.94 µM | 
Cc1cc(C)c2sc(NC(=O)c3ccc(N4C(=O)CCC4=O)cc3)nc2c1 | active: 0.112 µM | 
COc1cccc(SCc2noc(C(=O)NCc3ccccc3)c2C(=O)NCc2ccccc2)c1 | inconclusive: 2.82 µM [inhibitor, single point] | 
Cc1ccccc1NC(=O)C1CCCN1S(=O)(=O)c1cccc2cccnc12 (stereo not drawn) | inconclusive: 8.91 µM [inhibitor, partial curve, poor fit] | 
Cc1cc(Cl)nc(SCC(=O)c2ccccc2)n1 |  | inactive: 11.7%
O=C(CN1C(=O)CC(c2ccco2)Sc2ccccc21)Nc1ccccc1F (stereo not drawn) | inconclusive: 12.6 µM [activator, partial curve] | 
CC1CCN(Cc2nnnn2CCCC(=O)N(C)C(C)c2ccccn2)CC1 (stereo not drawn) |  | inactive: 10%
C=CCNC(=S)Nc1cc(C)ccn1 | active: 1 µM | 
Cc1sc2nc(CN(C(=O)c3cccs3)C3CCCC3)[nH]c(=O)c2c1C | active: 11.2 µM | 
COc1ccccc1NC(=O)c1ccc(NC(=O)COC(=O)C2(C)CC2(Cl)Cl)cc1 (stereo not drawn) | inconclusive: 12.6 µM [activator, single point] | 
CCC(C)NC(=O)c1ccc(N2CCC3(CC2)OCCO3)c([N+](=O)[O-])c1 (stereo not drawn) | inconclusive: 12.6 µM [activator, partial curve, poor fit] | 
Cc1cnc(NC(=O)C2CCC(C(C)(C)C)CC2)s1 (stereo not drawn) | inconclusive: 22.4 µM [inhibitor, single point] | 
O=C(Nc1ccc(Cl)c(Cl)c1)c1ccc(Cn2c(=O)[nH]c3ccsc3c2=O)cc1 | inconclusive: 1.41 µM [activator, single point] | 
CCOC(=O)CNC(=O)O[C@@H]1C(=O)c2cc(Br)ccc2O[C@H]1c1ccc2c(c1)OCO2 |  | inactive: -7.34%
COc1ccc(/C=C2\SC(=S)N(CCCC(=O)NNC(=O)c3ccccc3O)C2=O)cc1 | active: 0.708 µM | 
COc1ccc(C2C(C#N)=C(N)Oc3c2ccc2cccnc32)cc1OC (stereo not drawn) | inconclusive: 7.08 µM [inhibitor, full curve, poor fit] | 
CSc1nc2sc3c(c2c(=O)[nH]1)CC(C)(C)OC3 |  | inactive: 11.6%
CN1CCN(C(=O)/C=C/c2ccc(Cl)c(Cl)c2)CC1 |  | inactive: -24.1%
CCN(CC)C(=O)C1CCC(CNS(=O)(=O)c2cccc3nsnc23)CC1 (stereo not drawn) |  | inactive: 5.62%
COC(=O)c1ccc(C(NC(=O)OCc2ccccc2)/C(F)=C/[C@@H](C)C(=O)Nc2ccc(OC)cc2)cc1 (stereo partly drawn) | active: 20 µM | 
S=C1SCN(Cc2ccco2)CN1Cc1ccco1 | active: 2.51 µM | 
COc1ccc(-c2nc(C#N)c(N3CCOCC3)o2)cc1OC |  | inactive: 14.2%
